No constants are given. Whether binding was seen depends on the method and setting.
Assays:
[1] = target: Caenorhabditis elegans Tudor staphylococcal nuclease (cTSN) (Caenorhabditis elegans) (UniProt Q19328); test: SEC-MALS; 1 mg/mL, 100 µL injected on Agilent-Bio SEC-3 column; PBS (pH 7.4) with 150 mM NaCl and 5 mM β-mercaptoethanol, 0.2 mL/min; both purified
[2] = target: Caenorhabditis elegans Tudor staphylococcal nuclease (cTSN) (Caenorhabditis elegans) (UniProt Q19328); test: AUC; sedimentation velocity, 40,000 rpm, 4°C; protein at OD280 of 1.0 in 50 mM HEPES (pH 7.0), 150 mM NaCl, 10 mM imidazole, 1 mM β-mercaptoethanol; c(s) distribution (SEDFIT); both purified
[3] = target: T1, Homo sapiens Tudor staphylococcal nuclease (hTSN) (Homo sapiens), Q7KZF4; test: SEC-MALS; 1 mg/mL, 100 µL injected on Agilent-Bio SEC-3 column; PBS (pH 7.4) with 150 mM NaCl and 5 mM β-mercaptoethanol, 0.2 mL/min; both purified; settings: remark: other sources report otherwise
T1 chain: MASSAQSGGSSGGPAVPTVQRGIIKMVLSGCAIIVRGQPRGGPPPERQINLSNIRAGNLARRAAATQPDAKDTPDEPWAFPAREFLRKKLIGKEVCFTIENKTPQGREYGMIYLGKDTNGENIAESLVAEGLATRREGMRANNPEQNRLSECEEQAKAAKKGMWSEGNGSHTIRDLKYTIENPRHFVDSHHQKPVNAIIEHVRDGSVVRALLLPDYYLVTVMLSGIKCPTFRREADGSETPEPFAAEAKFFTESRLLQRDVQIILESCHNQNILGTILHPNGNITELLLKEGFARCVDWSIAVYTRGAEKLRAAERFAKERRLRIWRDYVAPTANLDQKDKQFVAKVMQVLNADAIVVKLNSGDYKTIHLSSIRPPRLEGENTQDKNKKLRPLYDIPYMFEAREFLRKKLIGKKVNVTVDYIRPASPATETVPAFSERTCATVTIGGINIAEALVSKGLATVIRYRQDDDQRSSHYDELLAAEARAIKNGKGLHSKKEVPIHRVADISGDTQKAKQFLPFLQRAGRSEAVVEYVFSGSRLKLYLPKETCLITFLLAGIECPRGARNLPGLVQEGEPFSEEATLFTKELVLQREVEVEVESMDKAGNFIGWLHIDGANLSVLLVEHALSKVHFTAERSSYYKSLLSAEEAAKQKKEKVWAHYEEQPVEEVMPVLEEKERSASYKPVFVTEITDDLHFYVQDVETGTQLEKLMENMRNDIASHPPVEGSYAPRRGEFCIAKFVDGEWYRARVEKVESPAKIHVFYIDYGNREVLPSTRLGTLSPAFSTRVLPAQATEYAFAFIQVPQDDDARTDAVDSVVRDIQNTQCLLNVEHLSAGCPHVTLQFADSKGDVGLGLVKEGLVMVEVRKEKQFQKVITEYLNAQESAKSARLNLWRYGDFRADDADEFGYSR

[4] = target: T1, Homo sapiens Tudor staphylococcal …; test: AUC; sedimentation velocity, 40,000 rpm, 4°C; protein at OD280 of 1.0 in 50 mM HEPES (pH 7.0), 150 mM NaCl, 10 mM imidazole, 1 mM β-mercaptoethanol; c(s) distribution (SEDFIT); both purified; settings: remark: other sources report otherwise

B1: Caenorhabditis elegans Tudor staphylococcal nuclease (cTSN) (enzyme, UniProt Q19328 1-914)
chain: MTDAAAATPTVPPPAASSANPAVRRGLVKSVLSGDAVILQGQPHNGPPPEWTVYLSNVTAPRLGRRPTDSASATPDEPYAWDSREYLRQKLVGQFVTFVRDFTATSGRDHGRIYLGGTSPADAENVAEGAVSAGLLEVRQGKVADEYSTKLLELQEQAKSAGRGKWNSNAGTIRDIRWVIDNPRELVDKYAQKPIDAVIEMVRDGSTVRAFLLPNFEYITLQLSGVRAPSTRNPNAADSRAEAFSEEAKFFAESRLLQRDVQIILESTSNQNFVGSIVHPKGNIAESLLREGYAKCVDWSIGLCTGGAQKLRDAERQAKEKRLRLWKSYQPTSSAYSGDRKAFTGKVVEIVLSDAVVVQKDDGSEVKLHLSSIRLPRESGDDKATGGPGRQFRPLYDIPFMFQAREFLRKRLLGKKVQIQIDYVQPKSENFPEKTCATIKIGDQNIAEGLISRGLSKVVRHRADDENRSSEYDTLLAAEANAEKGKKGLFADKTAEKKDTHRIQEITGDLAKAKQFLPYLQRGGRAEGVVEFLSGGSRLRIYIPKETVLITFLLGGINCPKGARVGPGGVSTGAAEPFADEAAAFTRKLVLQHEVQLEVESTDKNGNFVGYLYVSPDGNTSRAINLSEALVENGLASLHFTAERSGHYNALLSAENKAKKAKKNIWANFTEEQHQEEVEVQQADTSERKQNFRQVAVTDIAPGALRFSAQNIEDGPKIEKMTTEMRQALAEHPPLAGSYTTKRGDLCVAKFSQDGQWYRCKVESVRAGQAEIVYIDYGNRETIEAVKLAQIPAGFANFPAGVREYNLALAKLPNEDYVQLTSDAFAQYLFGHSSVFINSEYKVGTSEYVTVYYDSGNKKVDIGKSLIAEGLALADHRREPRLQTLVNDYNTTEEVARKSRKNIWEYGDFTGNDI
B1 was tested, and the binding [1] was “no binding (tested: 1 mg/mL)” and the binding [2] was “no binding (tested: OD280 of 1.0)”.

B2: Homo sapiens Tudor staphylococcal nuclease (hTSN), Q7KZF4 1-910 (enzyme)
chain: MASSAQSGGSSGGPAVPTVQRGIIKMVLSGCAIIVRGQPRGGPPPERQINLSNIRAGNLARRAAATQPDAKDTPDEPWAFPAREFLRKKLIGKEVCFTIENKTPQGREYGMIYLGKDTNGENIAESLVAEGLATRREGMRANNPEQNRLSECEEQAKAAKKGMWSEGNGSHTIRDLKYTIENPRHFVDSHHQKPVNAIIEHVRDGSVVRALLLPDYYLVTVMLSGIKCPTFRREADGSETPEPFAAEAKFFTESRLLQRDVQIILESCHNQNILGTILHPNGNITELLLKEGFARCVDWSIAVYTRGAEKLRAAERFAKERRLRIWRDYVAPTANLDQKDKQFVAKVMQVLNADAIVVKLNSGDYKTIHLSSIRPPRLEGENTQDKNKKLRPLYDIPYMFEAREFLRKKLIGKKVNVTVDYIRPASPATETVPAFSERTCATVTIGGINIAEALVSKGLATVIRYRQDDDQRSSHYDELLAAEARAIKNGKGLHSKKEVPIHRVADISGDTQKAKQFLPFLQRAGRSEAVVEYVFSGSRLKLYLPKETCLITFLLAGIECPRGARNLPGLVQEGEPFSEEATLFTKELVLQREVEVEVESMDKAGNFIGWLHIDGANLSVLLVEHALSKVHFTAERSSYYKSLLSAEEAAKQKKEKVWAHYEEQPVEEVMPVLEEKERSASYKPVFVTEITDDLHFYVQDVETGTQLEKLMENMRNDIASHPPVEGSYAPRRGEFCIAKFVDGEWYRARVEKVESPAKIHVFYIDYGNREVLPSTRLGTLSPAFSTRVLPAQATEYAFAFIQVPQDDDARTDAVDSVVRDIQNTQCLLNVEHLSAGCPHVTLQFADSKGDVGLGLVKEGLVMVEVRKEKQFQKVITEYLNAQESAKSARLNLWRYGDFRADDADEFGYSR
For B2, the binding [3] was “no binding (tested: 1 mg/mL)” and the binding [4] was “no binding (tested: OD280 of 1.0)”.

From article PMC5900569
